Test results reported in paper PMC6874683, “Pyrrothiogatain acts as an inhibitor of GATA family proteins and inhibits Th2 cell differentiation in vitro” (Scientific Reports, 2019).
Results are given in words; binding and its absence hold for the method and conditions named. For some assays here: Binding seen in cells or lysates may run through a third protein. Some entries that bind do so weakly or less than the wild type.

Chains of the proteins cited; added tags and fusions are not shown.
UniProt P23771: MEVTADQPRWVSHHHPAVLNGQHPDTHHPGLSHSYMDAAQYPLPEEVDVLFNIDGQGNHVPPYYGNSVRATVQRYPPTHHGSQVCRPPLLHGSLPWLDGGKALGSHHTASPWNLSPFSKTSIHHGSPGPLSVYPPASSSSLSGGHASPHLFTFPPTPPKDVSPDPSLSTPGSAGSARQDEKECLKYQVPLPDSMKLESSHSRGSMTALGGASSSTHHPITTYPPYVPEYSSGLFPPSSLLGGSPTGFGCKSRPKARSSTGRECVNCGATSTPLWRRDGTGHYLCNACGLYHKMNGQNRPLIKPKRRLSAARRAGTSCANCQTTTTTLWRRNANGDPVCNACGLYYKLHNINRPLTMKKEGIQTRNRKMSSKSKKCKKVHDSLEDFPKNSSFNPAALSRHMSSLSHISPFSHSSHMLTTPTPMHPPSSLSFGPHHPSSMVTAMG
UniProt Q06945: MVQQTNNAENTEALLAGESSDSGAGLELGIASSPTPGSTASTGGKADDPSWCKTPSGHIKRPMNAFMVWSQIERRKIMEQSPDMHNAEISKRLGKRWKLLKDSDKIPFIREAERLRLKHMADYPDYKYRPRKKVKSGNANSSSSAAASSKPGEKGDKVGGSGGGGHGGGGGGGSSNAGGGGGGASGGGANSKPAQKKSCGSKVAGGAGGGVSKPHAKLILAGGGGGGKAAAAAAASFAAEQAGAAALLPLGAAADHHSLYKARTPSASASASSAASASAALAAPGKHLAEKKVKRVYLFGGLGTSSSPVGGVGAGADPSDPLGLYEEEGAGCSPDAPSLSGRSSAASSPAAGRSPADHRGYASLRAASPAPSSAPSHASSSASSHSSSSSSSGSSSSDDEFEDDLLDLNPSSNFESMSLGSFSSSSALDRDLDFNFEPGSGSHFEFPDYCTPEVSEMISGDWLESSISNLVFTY

Assays:
[1] = molecular target: FLAG-tagged recombinant full-length GATA3 (UniProt P23771); experiment: co-IP; recombinant FLAG-GATA3 and AGIA-SOX4 (wheat cell-free) mixed with anti-FLAG M2 affinity agarose gel, 4 °C, 2 h, washed three times; immunoblot with anti-FLAG M2 and anti-AGIA-HRP; with pyrrothiogatain 0 to 100 µM (dose-dependent decrease)
[2] = molecular target: FLAG-tagged recombinant full-length GATA3 (UniProt P23771); experiment: AlphaScreen or HTRF; biotin-SOX4 and FLAG-tagged protein, both synthesized by the wheat cell-free system; luminescence signal; also with pyrrothiogatain 0 to 100 µM (dose-dependent decrease)

Substance	binding [1]	binding [2]
AGIA-SOX4 (from UniProt Q06945 1-474)	binds	
N-terminal biotinylated full-length SOX4 (from UniProt Q06945 1-474)		binds
